Results from patent US20140057915A1, “KINASE INHIBITORS” (TOPIVERT PHARMA LIMITED, priority 2012, published 2014).
Some results were stated once for a whole list of compounds, not compound by compound.

What follows are molecules tested on β-catenin, d-U937 cells (assay: Accumulation of β catenin in d-U937 cells). Details: test concentration 10 μg/mL; found negative.
Type: cell-based, human

| SMILES | inductive effect on β-catenin as % of the effect produced by the Reference Compound at 1 μg/mL |
| --- | --- |
| COc1cc(Nc2nccc(Oc3ccc(NC(=O)Nc4cc(C(C)C)nn4-c4ccc(C)cc4)c4ccccc34)n2)cc(C(=O)NCCN2CCOCC2)c1 [Example 8, 3-((4-((4-(3-(3-Isopropyl-1-(p-tolyl)-1H-pyrazol-5-yl)ureido)naphthalen-1-yl)oxy)pyrimidin-2-yl)amino)-5-methoxy-N-(2-morpholinoethyl)benzamide] | less than 15% |
| COc1cc(Nc2nccc(Oc3ccc(NC(=O)Nc4cc(C(F)(F)C(F)(F)F)nn4-c4ccc(C)cc4)c4ccccc34)n2)cc(C(=O)NCCN2CCOCC2)c1 [Example 9] | less than 15% |
| C=C(C)c1cc(NC(=O)Nc2ccc(Oc3ccnc(Nc4cc(OC)cc(C(=O)NCCN5CCOCC5)c4)n3)c3ccccc23)n(-c2ccc(OC)cc2)n1 [Example 86, 3-Methoxy-5-((4-((4-(3-(1-(4-methoxyphenyl)-3-(prop-1-en-2-yl)-1H-pyrazol-5-yl)ureido)naphthalen-1-yl)oxy)pyrimidin-2-yl)amino)-N-(2-morpholinoethyl)-benzamide] | less than 15% |
